# The supplement of paper PMC7666118
# Chains of the proteins cited; added tags and fusions are not shown. Lines headed by an entry give the natural chain unless they say otherwise; changes in a name come on top.
# UniProt Q68D10: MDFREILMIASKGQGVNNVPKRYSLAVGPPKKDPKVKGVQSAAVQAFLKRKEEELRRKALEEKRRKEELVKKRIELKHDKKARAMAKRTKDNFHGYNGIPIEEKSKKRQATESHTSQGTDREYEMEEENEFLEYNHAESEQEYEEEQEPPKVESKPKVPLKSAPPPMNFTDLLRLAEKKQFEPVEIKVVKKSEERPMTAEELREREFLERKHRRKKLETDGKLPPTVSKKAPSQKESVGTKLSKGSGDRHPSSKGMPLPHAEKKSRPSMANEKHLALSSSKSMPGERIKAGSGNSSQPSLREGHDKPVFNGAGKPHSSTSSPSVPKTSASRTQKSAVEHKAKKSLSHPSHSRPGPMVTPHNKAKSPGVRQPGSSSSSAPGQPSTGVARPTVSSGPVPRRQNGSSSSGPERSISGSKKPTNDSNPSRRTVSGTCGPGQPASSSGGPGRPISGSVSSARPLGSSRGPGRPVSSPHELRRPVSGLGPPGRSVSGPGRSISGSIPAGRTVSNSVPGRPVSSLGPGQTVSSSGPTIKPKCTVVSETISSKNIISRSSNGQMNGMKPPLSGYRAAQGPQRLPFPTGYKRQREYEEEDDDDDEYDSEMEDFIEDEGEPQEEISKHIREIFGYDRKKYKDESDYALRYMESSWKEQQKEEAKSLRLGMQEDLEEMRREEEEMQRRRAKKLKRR
# UniProt Q8N3U4: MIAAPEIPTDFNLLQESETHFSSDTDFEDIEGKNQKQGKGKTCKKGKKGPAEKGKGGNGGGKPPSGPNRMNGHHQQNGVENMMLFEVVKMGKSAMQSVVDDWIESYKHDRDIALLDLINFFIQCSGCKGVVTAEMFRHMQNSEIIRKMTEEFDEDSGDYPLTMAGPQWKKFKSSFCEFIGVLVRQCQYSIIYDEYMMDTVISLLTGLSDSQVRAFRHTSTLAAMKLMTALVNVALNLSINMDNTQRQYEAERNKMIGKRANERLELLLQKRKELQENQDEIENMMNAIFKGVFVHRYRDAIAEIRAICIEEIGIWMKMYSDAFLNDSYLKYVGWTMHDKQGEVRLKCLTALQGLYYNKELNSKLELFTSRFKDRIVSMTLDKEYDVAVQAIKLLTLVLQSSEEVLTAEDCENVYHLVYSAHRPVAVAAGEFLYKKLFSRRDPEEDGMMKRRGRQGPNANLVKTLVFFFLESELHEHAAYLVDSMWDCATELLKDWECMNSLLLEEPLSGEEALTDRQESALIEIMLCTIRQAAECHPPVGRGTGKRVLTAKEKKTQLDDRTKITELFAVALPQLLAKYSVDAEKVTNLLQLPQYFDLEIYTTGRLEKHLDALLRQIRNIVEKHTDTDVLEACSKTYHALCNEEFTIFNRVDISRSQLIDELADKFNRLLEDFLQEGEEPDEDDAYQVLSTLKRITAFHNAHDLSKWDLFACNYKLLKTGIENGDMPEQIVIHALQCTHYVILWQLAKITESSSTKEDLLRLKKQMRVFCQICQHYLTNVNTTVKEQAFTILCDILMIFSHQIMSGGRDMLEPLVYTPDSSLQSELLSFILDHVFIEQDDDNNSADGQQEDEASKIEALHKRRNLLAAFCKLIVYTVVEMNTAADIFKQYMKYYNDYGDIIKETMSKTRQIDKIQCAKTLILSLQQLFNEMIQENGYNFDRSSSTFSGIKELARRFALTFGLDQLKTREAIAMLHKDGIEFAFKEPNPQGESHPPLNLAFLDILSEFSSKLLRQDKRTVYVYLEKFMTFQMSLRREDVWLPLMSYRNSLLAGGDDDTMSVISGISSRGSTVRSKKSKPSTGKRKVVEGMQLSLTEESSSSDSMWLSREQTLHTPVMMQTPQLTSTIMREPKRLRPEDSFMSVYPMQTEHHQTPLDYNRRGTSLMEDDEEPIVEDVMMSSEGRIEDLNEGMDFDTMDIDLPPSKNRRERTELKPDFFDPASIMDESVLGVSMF
# UniProt Q9HD15: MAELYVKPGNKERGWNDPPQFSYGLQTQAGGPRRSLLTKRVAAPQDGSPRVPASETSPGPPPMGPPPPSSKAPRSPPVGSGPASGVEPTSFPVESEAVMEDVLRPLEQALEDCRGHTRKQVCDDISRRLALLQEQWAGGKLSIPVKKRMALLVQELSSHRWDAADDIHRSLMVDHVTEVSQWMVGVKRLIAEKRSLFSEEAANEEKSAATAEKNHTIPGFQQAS
# UniProt Q96T58, whole entry: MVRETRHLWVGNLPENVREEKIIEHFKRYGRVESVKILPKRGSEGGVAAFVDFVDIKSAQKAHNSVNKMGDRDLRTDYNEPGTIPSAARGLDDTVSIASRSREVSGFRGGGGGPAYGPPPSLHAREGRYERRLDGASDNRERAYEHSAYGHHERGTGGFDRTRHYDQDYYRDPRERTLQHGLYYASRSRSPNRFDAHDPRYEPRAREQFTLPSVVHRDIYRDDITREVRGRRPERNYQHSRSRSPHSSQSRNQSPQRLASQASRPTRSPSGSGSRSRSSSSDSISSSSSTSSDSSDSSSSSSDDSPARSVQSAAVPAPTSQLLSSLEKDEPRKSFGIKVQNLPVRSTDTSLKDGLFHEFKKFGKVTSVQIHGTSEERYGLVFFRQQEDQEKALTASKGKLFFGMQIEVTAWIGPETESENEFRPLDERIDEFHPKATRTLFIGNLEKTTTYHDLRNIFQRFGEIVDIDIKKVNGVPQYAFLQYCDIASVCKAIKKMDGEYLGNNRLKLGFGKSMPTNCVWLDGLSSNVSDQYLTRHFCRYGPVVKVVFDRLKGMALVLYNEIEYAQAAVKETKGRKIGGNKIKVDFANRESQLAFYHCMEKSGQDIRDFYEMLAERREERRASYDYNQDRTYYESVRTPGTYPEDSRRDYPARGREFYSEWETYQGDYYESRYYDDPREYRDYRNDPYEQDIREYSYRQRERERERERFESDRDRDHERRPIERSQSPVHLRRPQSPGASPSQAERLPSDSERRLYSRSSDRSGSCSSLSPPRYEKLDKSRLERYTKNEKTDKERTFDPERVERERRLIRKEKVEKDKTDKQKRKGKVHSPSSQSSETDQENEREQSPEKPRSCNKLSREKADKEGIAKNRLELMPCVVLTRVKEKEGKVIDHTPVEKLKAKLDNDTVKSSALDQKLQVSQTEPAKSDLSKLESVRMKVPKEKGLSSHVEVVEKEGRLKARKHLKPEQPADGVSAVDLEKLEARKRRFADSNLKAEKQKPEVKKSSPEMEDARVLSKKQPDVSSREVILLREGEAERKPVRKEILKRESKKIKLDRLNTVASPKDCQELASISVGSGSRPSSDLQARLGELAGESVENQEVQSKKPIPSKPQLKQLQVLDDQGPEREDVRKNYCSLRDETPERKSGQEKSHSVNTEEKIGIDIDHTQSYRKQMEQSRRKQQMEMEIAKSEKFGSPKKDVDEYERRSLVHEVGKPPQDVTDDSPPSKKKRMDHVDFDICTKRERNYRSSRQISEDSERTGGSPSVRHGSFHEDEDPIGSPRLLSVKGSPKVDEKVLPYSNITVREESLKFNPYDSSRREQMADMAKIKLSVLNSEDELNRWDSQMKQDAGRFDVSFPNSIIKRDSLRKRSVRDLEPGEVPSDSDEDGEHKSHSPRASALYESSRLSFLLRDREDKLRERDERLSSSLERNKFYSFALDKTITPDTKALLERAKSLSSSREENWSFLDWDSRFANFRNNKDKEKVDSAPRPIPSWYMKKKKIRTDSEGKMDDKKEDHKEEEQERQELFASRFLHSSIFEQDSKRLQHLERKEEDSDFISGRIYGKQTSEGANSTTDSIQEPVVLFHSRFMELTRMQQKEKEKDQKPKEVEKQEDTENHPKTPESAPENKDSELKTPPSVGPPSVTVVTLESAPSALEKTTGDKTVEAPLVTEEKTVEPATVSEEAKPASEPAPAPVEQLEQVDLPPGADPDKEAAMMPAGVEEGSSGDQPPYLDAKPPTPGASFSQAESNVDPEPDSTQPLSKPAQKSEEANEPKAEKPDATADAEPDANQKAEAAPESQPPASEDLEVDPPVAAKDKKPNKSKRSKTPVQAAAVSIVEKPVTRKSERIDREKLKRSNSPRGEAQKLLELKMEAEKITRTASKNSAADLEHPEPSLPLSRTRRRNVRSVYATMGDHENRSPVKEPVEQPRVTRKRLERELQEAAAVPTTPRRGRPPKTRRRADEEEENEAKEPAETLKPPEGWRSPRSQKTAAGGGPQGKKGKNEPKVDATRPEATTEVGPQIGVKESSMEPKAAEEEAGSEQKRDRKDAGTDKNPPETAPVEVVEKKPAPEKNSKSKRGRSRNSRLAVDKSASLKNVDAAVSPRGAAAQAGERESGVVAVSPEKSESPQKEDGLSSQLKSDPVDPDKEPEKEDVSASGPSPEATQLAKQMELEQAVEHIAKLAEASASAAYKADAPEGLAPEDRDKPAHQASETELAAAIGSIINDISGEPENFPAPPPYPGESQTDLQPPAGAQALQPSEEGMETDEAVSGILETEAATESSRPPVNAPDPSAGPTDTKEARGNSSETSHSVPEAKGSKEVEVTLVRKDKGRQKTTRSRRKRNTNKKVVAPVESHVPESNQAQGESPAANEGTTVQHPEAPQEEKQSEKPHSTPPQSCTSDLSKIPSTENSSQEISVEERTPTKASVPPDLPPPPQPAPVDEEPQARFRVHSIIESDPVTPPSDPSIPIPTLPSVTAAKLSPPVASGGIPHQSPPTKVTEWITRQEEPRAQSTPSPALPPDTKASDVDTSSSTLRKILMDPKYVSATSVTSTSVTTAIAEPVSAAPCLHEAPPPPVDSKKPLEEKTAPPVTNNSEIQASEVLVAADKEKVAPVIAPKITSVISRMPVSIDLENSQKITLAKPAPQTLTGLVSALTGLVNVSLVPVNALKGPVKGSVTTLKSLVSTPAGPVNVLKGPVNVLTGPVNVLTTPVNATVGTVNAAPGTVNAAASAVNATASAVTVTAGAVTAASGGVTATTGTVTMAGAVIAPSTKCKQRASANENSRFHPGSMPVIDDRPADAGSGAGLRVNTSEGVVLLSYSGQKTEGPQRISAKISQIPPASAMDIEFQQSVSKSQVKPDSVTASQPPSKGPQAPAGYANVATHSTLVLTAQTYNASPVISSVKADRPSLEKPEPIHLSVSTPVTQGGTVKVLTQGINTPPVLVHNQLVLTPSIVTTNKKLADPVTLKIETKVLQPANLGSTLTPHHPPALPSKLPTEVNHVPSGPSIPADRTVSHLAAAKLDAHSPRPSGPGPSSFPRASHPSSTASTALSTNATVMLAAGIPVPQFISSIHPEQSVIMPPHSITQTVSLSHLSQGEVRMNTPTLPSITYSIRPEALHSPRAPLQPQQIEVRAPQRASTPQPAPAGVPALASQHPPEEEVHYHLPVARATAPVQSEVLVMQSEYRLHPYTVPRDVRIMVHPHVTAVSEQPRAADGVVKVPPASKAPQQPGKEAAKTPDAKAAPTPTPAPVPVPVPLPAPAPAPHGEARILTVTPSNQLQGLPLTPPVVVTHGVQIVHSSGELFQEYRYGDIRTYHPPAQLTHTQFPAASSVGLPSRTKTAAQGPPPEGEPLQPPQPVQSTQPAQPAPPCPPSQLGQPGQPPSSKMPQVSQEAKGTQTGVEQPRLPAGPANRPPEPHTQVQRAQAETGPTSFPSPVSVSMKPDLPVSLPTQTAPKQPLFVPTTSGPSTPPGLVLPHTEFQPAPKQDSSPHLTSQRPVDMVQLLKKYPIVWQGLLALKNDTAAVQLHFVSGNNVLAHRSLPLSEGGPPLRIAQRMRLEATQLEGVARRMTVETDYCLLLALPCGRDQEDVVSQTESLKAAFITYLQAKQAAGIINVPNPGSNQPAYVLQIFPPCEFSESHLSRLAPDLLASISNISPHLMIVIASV
# UniProt O75683: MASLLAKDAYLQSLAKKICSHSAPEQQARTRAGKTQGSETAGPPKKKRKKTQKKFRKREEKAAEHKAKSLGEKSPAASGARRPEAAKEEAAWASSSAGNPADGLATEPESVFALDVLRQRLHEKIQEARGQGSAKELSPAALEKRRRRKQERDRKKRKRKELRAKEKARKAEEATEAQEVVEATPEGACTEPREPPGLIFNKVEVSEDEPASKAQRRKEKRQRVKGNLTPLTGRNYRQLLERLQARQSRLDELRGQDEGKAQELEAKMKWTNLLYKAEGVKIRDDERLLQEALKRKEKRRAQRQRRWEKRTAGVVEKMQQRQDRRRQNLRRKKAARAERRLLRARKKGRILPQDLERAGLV
# UniProt P56962: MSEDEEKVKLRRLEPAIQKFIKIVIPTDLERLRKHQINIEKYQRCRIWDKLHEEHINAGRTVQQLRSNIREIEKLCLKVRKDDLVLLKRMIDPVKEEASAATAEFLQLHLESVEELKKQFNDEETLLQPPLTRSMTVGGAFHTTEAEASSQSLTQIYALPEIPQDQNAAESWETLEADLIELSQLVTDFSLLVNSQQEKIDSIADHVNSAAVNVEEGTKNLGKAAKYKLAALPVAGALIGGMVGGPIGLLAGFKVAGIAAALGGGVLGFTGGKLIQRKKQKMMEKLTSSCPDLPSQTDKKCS
# The list shows a part of the results.
# Compound: COc1ccc(Cn2ccc3ccc(C(=O)NO)cc32)cc1
# Assay: dose-dependent thermal stabilisation call (2D-TPP, DLPTP, 10% FDR) (binary (1 = stabilised)); higher = stabilised by the compound
# Conditions: system: HL-60 intact cells; concentration range 0.04-10 µM
row,Target,dose-dependent thermal stabilisation call
1,SPN (UniProt P16150),inactive: 0
2,SRPK1 (UniProt Q96SB4),inactive: 0
3,SPTY2D1 (UniProt Q68D10),inactive: 0
4,SUFU (UniProt Q9UMX1),inactive: 0
5,STAG2 (UniProt Q8N3U4),inactive: 0
6,SRA1 (UniProt Q9HD15),inactive: 0
7,SPEN (UniProt Q96T58),inactive: 0
8,SURF6 (UniProt O75683),inactive: 0
9,STX17 (UniProt P56962),inactive: 0

# In another format: results already given.
row	Target	dose-dependent thermal stabilisation call
7	SPEN (UniProt Q96T58)	inactive: 0
8	SURF6 (UniProt O75683)	inactive: 0
